# According to publication PMC3156230:
# Results are given in words; binding and its absence hold for the method and conditions named. Binding seen in cells or lysates may run through a third protein.
# B1: C. elegans SYG-2 (receptor, UniProt Q9U3P2 20-1270)
# chain: FFLESPSNLSTIAGESITFRCSAEKSPEPIVYSQWKSNTGSLLGYHQEGILPGHQGRFSYIKQNAEELHLKITHVNLDDDGEYECQMLHPEEGPIRAKSFLNIIVPPQLVYFSNYQPNSIIAVKENTPLNITCVVPNVKPEPEVLWYMDGKVMSRDVKQASTPHLNKTFTVYTSLVVQSDRNDHGKVITCEAFQKETDIRITTNTTLDVLFPPSDPTVEILRNPSALRSGDNVTIACSVTGGNPPPDVFWYHENKRLQSHSTLDTRSKEIKNIYSFIASQNDNMAEYECRANNSRTGNPKRKAMKLEVNYPPASVELFGESNIRYGSSANIQCKSLPSNPASQITWIINGRSVPTPTQREFVVENGIVSSSNVSVHSNELSVEAHQINVECMATNPEGSSAKQHVIKIIAPPKAPIITGLEDRKFFEGDIVNVTCEAQGGNPLAELSWYRGSEKHLVKGRKKMKWSQVKKKLVMSLLCLCEVVIMNFFRFSKNVFYFFRFTLFIECGVNGAHNEVAGFSSYSTLALRVDRTMNTQRLKCEATNAALDEPLIESQYLSVYYPPRRVLIRPADSGDQRLLVGKSARLVCGTLSSNPAAHISWQFSRATDDNKVHLGDVSLNETTRDNGFNVENVLSFTPTEEYDGTVVHCIANHPEWKHSVNTSFPLNVMYPPKMLVNDPVTVVMSEGDSFKENLTVRGNPAISLWQWRKNGVPFDHTIGRVFARGAVLSGKQLLSTDAGVYTLTATNSVGSTNITIKLAVEYSARITSISTPVIAATGDTVLLECEADGEPSKANMIHWYKNGEILAAQHRGHKKAILRLNATEQQSGEYTCKADNGIGVPAEGQTFLLVNSAPRVLPVARYAKTAGILGGVAKARCKVYAVPTVEFVWEKDEQLIKKNSSKYSIVNTQIDYSTYESTLWIKNIVPDDYTKKVKCIARNSFGTDHLSIPIIPPTHPDEPFNLTMTNSTLNTISVAWEPRFDGGSDQIFEVKYRRQNDDLIHLVNTTHTNLRLSGLATANTYFFQIRSINARGFASSWTSPVIFATLNEDGVNVAMIRNEKLKLTTWIPYILIFIVLFMLLNVVICCFVCNRTKKRKLREKTEMARTAINGGDVRQVQMYGTMMGNDGMSRRDIDDRPEMSEDEHSVRTMIEVSPNGYMQPIEPMLYESTGLLEYDYQTRSYMGSSQGTRSMTYANVPYPEPPQPSYHSNWNSLQRQSNNNTSPQHHLSTFINPNMGVRAGPINYAQLDGDLV
# Target: RGS3
# Experiment: co-IP; V5-tagged and Flag-tagged proteins co-expressed in transiently transfected HEK 293T cells; lysis buffer with 1% Triton X-100; cleared lysate incubated 1-2 h with anti-Flag M2 beads, washed four times; Western blot with anti-V5
binder,measurement,value
B1,binding,no binding
